Source: doi:10.1371/journal.pone.0140310, primary screening data, rounded.

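Human melanoma cells were exposed to two drugs together for 72 h in 1,536-well plates and read by automated microscopy after fixing and staining. The read-out is cell count (nuclei) in % of the DMSO control; lower values mean stronger growth inhibition or killing. Every drug was used at one fixed concentration, the higher of two screened. The file gives one value for each pair and line, without errors, so small differences may be noise.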
Only some of the drugs and lines screened are listed, without regard to their results.

Drugs:
selumetinib (75 nM): Cn1cnc2c(F)c(Nc3ccc(Br)cc3Cl)c(C(=O)NOCCO)cc21
lenalidomide (5000 nM): Nc1cccc2c1CN(C1CCC(=O)NC1=O)C2=O (configuration not stated)
PLX4720 (400 nM): CCCS(=O)(=O)Nc1ccc(F)c(C(=O)c2c[nH]c3ncc(Cl)cc23)c1F
tanespimycin (10 nM): C=CCNC1=C2C[C@@H](C)C[C@H](OC)[C@H](O)[C@@H](C)/C=C(\C)[C@H](OC(N)=O)[C@@H](OC)/C=C\C=C(/C)C(=O)NC(=CC1=O)C2=O
GSK650394 (800 nM): O=C(O)c1ccc(-c2c[nH]c3ncc(-c4ccccc4)cc23)cc1C1CCCC1
sunitinib (2000 nM): CCN(CC)CCNC(=O)c1c(C)[nH]c(/C=C2\C(=O)Nc3ccc(F)cc32)c1C
crizotinib (1000 nM): C[C@@H](Oc1cc(-c2cnn(C3CCNCC3)c2)cnc1N)c1c(Cl)ccc(F)c1Cl
vatalanib (10000 nM): Clc1ccc(Nc2nnc(Cc3ccncc3)c3ccccc23)cc1
NVP-TAE684 (400 nM): COc1cc(N2CCC(N3CCN(C)CC3)CC2)ccc1Nc1ncc(Cl)c(Nc2ccccc2S(=O)(=O)C(C)C)n1
temozolomide (10000 nM): Cn1nnc2c(C(N)=O)ncn2c1=O
KU-0063794 (100 nM): COc1ccc(-c2ccc3c(N4CCOCC4)nc(N4C[C@@H](C)O[C@@H](C)C4)nc3n2)cc1CO
lapatinib (4000 nM): CS(=O)(=O)CCNCc1ccc(-c2ccc3ncnc(Nc4ccc(OCc5cccc(F)c5)c(Cl)c4)c3c2)o1
TCS401 (8330 nM): O=C(O)C(=O)Nc1sc2c(c1C(=O)O)CCNC2
STA-4783 (30 nM): CN(NC(=O)CC(=O)NN(C)C(=S)c1ccccc1)C(=S)c1ccccc1
FK866 (50 nM): O=C(/C=C/c1cccnc1)NCCCCC1CCN(C(=O)c2ccccc2)CC1

Pair | C32
temozolomide and KU-0063794 | 100
selumetinib and tanespimycin | 19.0
GSK650394 and KU-0063794 | 88.4
NVP-TAE684 and sunitinib | 59.1
sunitinib and KU-0063794 | 86.9
STA-4783 and lapatinib | 42.4
vatalanib and KU-0063794 | 102
STA-4783 and FK866 | 24.5
STA-4783 and lenalidomide | 28.8
crizotinib and vatalanib | 78.9
lenalidomide and selumetinib | 94.8
tanespimycin and KU-0063794 | 21.1
NVP-TAE684 and FK866 | 92.3
selumetinib and temozolomide | 71.4
NVP-TAE684 and PLX4720 | 73.6
temozolomide and STA-4783 | 29.1
temozolomide and TCS401 | 90.1
lapatinib and PLX4720 | 80.3
vatalanib and sunitinib | 74.1
crizotinib and FK866 | 92.8
sunitinib and TCS401 | 74.9
KU-0063794 and PLX4720 | 79.6

The first 2 entries again:

Pair,C32
temozolomide and KU-0063794,100
selumetinib and tanespimycin,19.0